Measured values published in patent publication US20110077210A1 (published 2011).
No constants are given. Whether binding was seen depends on the method and setting. In cells and extracts the contact can be indirect. Some entries that bind do so weakly or less than the wild type. Tags and fused reporters may be left off the sequences shown.

By UniProt entry, the sequences of proteins in these tests, tags left out. Where a name states a change or a piece, a line headed by the entry shows the natural chain unless it says otherwise.
UniProt Q13547: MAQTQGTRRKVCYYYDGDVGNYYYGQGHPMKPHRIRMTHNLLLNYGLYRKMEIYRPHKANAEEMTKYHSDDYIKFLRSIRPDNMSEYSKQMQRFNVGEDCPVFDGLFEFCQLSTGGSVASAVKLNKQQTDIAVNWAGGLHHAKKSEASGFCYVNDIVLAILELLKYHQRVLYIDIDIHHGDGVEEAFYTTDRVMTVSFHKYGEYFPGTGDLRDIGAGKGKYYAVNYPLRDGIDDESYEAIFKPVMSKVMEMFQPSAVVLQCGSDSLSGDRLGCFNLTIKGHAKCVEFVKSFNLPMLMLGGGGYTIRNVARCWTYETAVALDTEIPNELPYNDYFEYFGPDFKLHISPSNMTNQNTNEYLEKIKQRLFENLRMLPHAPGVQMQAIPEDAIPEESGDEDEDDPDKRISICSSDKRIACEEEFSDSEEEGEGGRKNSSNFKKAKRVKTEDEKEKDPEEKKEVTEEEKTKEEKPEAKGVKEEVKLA

T1: HA-APPL-PTB (human) (UniProt Q9UKG1)
T1 sequence: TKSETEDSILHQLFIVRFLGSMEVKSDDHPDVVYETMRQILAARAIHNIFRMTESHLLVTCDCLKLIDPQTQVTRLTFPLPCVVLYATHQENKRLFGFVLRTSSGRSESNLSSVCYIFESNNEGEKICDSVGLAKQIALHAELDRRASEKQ


Tests used:
[1] = target: T1, HA-APPL-PTB (human); assay: reverse coimmunoprecipitation (IP of APPL-PTB) from HEK293 cells
[2] = target: HDAC1-flag (Homo sapiens (Human)) (UniProt Q13547); assay: coimmunoprecipitation (IP of HDAC1) from transfected HEK293 cells, Western blot
[3] = target: HDAC1-flag (Homo sapiens (Human)) (UniProt Q13547); assay: coimmunoprecipitation from transfected HEK293 cells, Western blot (FIG. 1B)
[4] = target: HDAC1-flag (Homo sapiens (Human)) (UniProt Q13547); assay: coimmunoprecipitation from transfected HEK293 cells, Western blot (FIG. 1A)

| binding [1] | binding [2] | binding [3] | binding [4] | Molecule |
| --- | --- | --- | --- | --- |
| binds |  |  |  | HDAC1-flag (from UniProt Q13547 1-482) (enzyme) |
|  | binds | binds |  | V5-APPL (full length APPL protein) (other, not shown: small tags and cut ends) MPGIDKLPIEETLEDSPQTRSLLGVFEEDATAISNYMNQLYQAMHRIYDAQNELSAATHLTSKLLKEYEKQRFPLGGDDEVMSSTLQQFSKVIDELSSCHAVLSTQLADAMMFPITQFKERDLKEILTLKEVFQIASNDHDAAINRYSRLSKKRENDKVKYEVTEDVYTSRKKQHQTMMHYFCALNTLQYKKKIALLEPLLGYMQAQISFFKMGSENLNEQLEEFLANIGTSVQNVRREMDSDIETMQQTIEDLEVASDPLYVPDPDPTKFPVNRNLTRKAGYLNARNKTGLVSSTWDRQFYFTQGGNLMSQARGDVAGGLAMDIDNCSVMAVDCEDRRYCFQITSFDGKKSSILQAESKKDHEEWICTINNISKQIYLSENPEETAARVNQSALEAVTPSPSFQQRHESLRPAAGQSRPPTARTSSSGSLGSESTNLAALSLDSLVAPDTPIQFDIISPVCEDQPGQAKAFGQGGRRTNPFGESGGSTKSETEDSILHQLFIVRFLGSMEVKSDDHPDVVYETMRQILAARAIHNIFRMTESHLLVTCDCLKLIDPQTQVTRLTFPLPCVVLYATHQENKRLFGFVLRTSSGRSESNLSSVCYIFESNNEGEKICDSVGLAKQIALHAELDRRASEKQKEIERVKEKQQKELNKQKQIEKDLEEQSRLIAASSRPNQASSEGQFVVLSSSQSEESDLGEGGKKRESEA |
|  | binds |  | binds | fragment of APPL (aa 489-639) identified in the yeast two-hybrid screen (other, Prey from a human brain cDNA library; The fragment fully overlaps the PTB domain (aa 500-634); also called APPL-PTB; fragment of DIP13alpha) TKSETEDSILHQLFIVRFLGSMEVKSDDHPDVVYETMRQILAARAIHNIFRMTESHLLVTCDCLKLIDPQTQVTRLTFPLPCVVLYATHQENKRLFGFVLRTSSGRSESNLSSVCYIFESNNEGEKICDSVGLAKQIALHAELDRRASEKQ |
